The list shows a part of the results. Many values rest on one well or one pass, so single values are uncertain.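 The apoptosis fraction was the count of cleaved-PARP antibody-stained nuclei relative to all DNA-stained nuclei, imaged in 1,536-well plates. Screening doses were set so most cells survived, and baseline and induced cleaved-PARP levels vary greatly across cell lines.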
How the values were obtained:
Experiment in all cases: cleaved PARP positive nuclei fraction relative to DMSO control; melanoma cells; higher = more apoptosis
Details in all cases: library dose: low library concentration; 72 h
A101D = test system: A101D
A2058 = test system: A2058
A375 = test system: A375
C32 = test system: C32
CBRC008 = test system: CBRC008 (line from a melanoma biopsy)
CBRC014 = test system: CBRC014 (line from a melanoma biopsy)
CBRC016 = test system: CBRC016 (line from a melanoma biopsy)
CBRC017 = test system: CBRC017 (line from a melanoma biopsy)
CBRC013 = test system: CBRC013 (line from a melanoma biopsy)

| SMILES | cleaved PARP positive nuclei fraction (A101D) | cleaved PARP positive nuclei fraction (A2058) | cleaved PARP positive nuclei fraction (A375) | cleaved PARP positive nuclei fraction (C32) | cleaved PARP positive nuclei fraction (CBRC008) | cleaved PARP positive nuclei fraction (CBRC014) | cleaved PARP positive nuclei fraction (CBRC016) | cleaved PARP positive nuclei fraction (CBRC017) | cleaved PARP positive nuclei fraction (CBRC013) |
| --- | --- | --- | --- | --- | --- | --- | --- | --- | --- |
| Cn1cc(C2=C(c3cn(C4CCN(Cc5ccccn5)CC4)c4ccccc34)C(=O)NC2=O)c2ccccc21 [Enzastaurin] + C[C@@H](Oc1cc(-c2cnn(C3CCNCC3)c2)cnc1N)c1c(Cl)ccc(F)c1Cl [Crizotinib] (first compound 0.8 µM, partner dose 0.2 µM) | 274% | 98.9% | 110% | 72.1% | 147% | 90.8% | 125% | 125% | – |
| N.N.[Cl][Pt][Cl] [cisplatin] + O=C(Oc1ccc([N+](=O)[O-])cc1)N1CCC(C(O)(c2ccc3c(c2)OCO3)c2ccc3c(c2)OCO3)CC1 [JZL184] (first compound 1.6 µM, partner dose 1 µM) | 64.9% | 52.8% | – | 69.6% | 311% | 85% | 112% | 250% | – |
| C#Cc1cccc(Nc2ncnc3cc(OCCOC)c(OCCOC)cc23)c1 [erlotinib] + Cc1cc(SCc2sc(-c3ccc(C(F)(F)F)c(F)c3)nc2C)ccc1OCC(=O)O [GW0742] (first compound 0.8 µM, partner dose 2 µM) | 118% | 48.1% | 96% | 122% | – | 101% | 99.6% | 106% | 589% |
| C[C@]12O[C@H](C[C@]1(O)CO)n1c3ccccc3c3c4c(c5c6ccccc6n2c5c31)CNC4=O [Lestaurtinib] + C[As](C)SC[C@H](NC(=O)CC[C@H](N)C(=O)O)C(=O)NCC(=O)O [Darinaparsin] (first compound 0.004 µM, partner dose 0.4 µM) | 87% | 16.1% | 105% | 76.6% | 60.6% | 82.9% | 106% | 113% | – |
| C[C@]12O[C@H](C[C@]1(O)CO)n1c3ccccc3c3c4c(c5c6ccccc6n2c5c31)CNC4=O [Lestaurtinib] + Cc1nc(Nc2ncc(C(=O)Nc3c(C)cccc3Cl)s2)cc(N2CCN(CCO)CC2)n1 [dasatanib] (first compound 0.004 µM, partner dose 0.004 µM) | 99% | 21.8% | 99.9% | 71% | 128% | 86.1% | 93.4% | 209% | – |
| C[C@]12O[C@H](C[C@]1(O)CO)n1c3ccccc3c3c4c(c5c6ccccc6n2c5c31)CNC4=O [Lestaurtinib] + Cn1nnc2c(C(N)=O)ncn2c1=O [temozolomide] (first compound 0.004 µM, partner dose 2 µM) | 161% | 111% | 67.6% | 68.1% | 120% | 197% | 80.5% | 70.3% | – |
| Cc1cc(SCc2sc(-c3ccc(C(F)(F)F)c(F)c3)nc2C)ccc1OCC(=O)O + COc1cc2ncnc(Nc3ccc(Oc4ccccc4)cc3)c2cc1OC [SrcI1] (first compound 2 µM, partner dose 2 µM) | 101% | 119% | 127% | 115% | – | 96.2% | 128% | 86.5% | 46.8% |
| CC(=O)O[C@@]12CO[C@@H]1C[C@H](O)[C@@]1(C)C(=O)[C@H](O)C3=C(C)[C@@H](OC(=O)[C@H](O)[C@@H](NC(=O)OC(C)(C)C)c4ccccc4)C[C@@](O)([C@@H](OC(=O)c4ccccc4)[C@H]21)C3(C)C [Docetaxel] + C[As](C)SC[C@H](NC(=O)CC[C@H](N)C(=O)O)C(=O)NCC(=O)O [Darinaparsin] (first compound 0.0001 µM, partner dose 0.4 µM) | 152% | 4360% | 4500% | 381% | 260% | 188% | 298% | 160% | – |
| CC(C)C[C@H](NC(=O)[C@H](Cc1ccccc1)NC(=O)c1cnccn1)B(O)O [Bortezomib] + Cc1cc(SCc2sc(-c3ccc(C(F)(F)F)c(F)c3)nc2C)ccc1OCC(=O)O [GW0742] (first compound 0.001 µM, partner dose 2 µM) | 256% | 41.7% | – | 224% | 2060% | 189% | 388% | 650% | – |
| C[C@@H]1CCN(C(=O)CC#N)C[C@@H]1N(C)c1ncnc2[nH]ccc12 + O=C(Oc1ccc([N+](=O)[O-])cc1)N1CCC(C(O)(c2ccc3c(c2)OCO3)c2ccc3c(c2)OCO3)CC1 [JZL184] (first compound 1 µM, partner dose 1 µM) | 110% | 56% | 44.7% | 162% | – | 102% | 54.4% | 84.3% | 201% |
| Cn1cc(C2=C(c3cn(C4CCN(Cc5ccccn5)CC4)c4ccccc34)C(=O)NC2=O)c2ccccc21 [Enzastaurin] + Cc1cc([N+](=O)[O-])ccc1NS(=O)(=O)c1cc(Cl)ccc1Cl [FH535] (first compound 0.8 µM, partner dose 1 µM) | 27.6% | 67.6% | – | 67.4% | 400% | 142% | 790% | 327% | – |
| C[As](C)SC[C@H](NC(=O)CC[C@H](N)C(=O)O)C(=O)NCC(=O)O [Darinaparsin] + COc1ccc(-c2ccc3c(N4CCOCC4)nc(N4C[C@@H](C)O[C@@H](C)C4)nc3n2)cc1CO [KU0063794] (first compound 0.4 µM, partner dose 0.02 µM) | 157% | 85.1% | 63% | 128% | – | 86.1% | 183% | 76.4% | 109% |
| C[As](C)SC[C@H](NC(=O)CC[C@H](N)C(=O)O)C(=O)NCC(=O)O [Darinaparsin] + Oc1cc(-c2nc(-c3ccccc3)[nH]c2-c2ccncc2)ccc1Cl [L779450] (first compound 0.4 µM, partner dose 0.2 µM) | 59.1% | 92.8% | 141% | 95.7% | – | 83.5% | 93.9% | 82.4% | 131% |
| O=c1[nH]nc(Sc2ncc([N+](=O)[O-])s2)n1-c1ccc2c(c1)OCCO2 + C[C@]12O[C@H](C[C@]1(O)CO)n1c3ccccc3c3c4c(c5c6ccccc6n2c5c31)CNC4=O [Lestaurtinib] (first compound 0.2 µM, partner dose 0.004 µM) | 444% | 47.3% | 189% | 146% | 68.6% | 120% | 94.5% | 124% | – |
| O=C(O)c1ccc2c(c1)nc(Nc1cccc(Cl)c1)c1ccncc12 + C/C(O)=C(\C#N)C(=O)Nc1cc(Br)ccc1Br [LFM-A13] (first compound 0.4 µM, partner dose 2 µM) | 37.4% | 158% | – | 123% | 230% | 112% | 107% | 132% | – |
| COCC[n+]1c2c(n(Cc3cnccn3)c1C)C(=O)c1ccccc1C2=O + O=C(Oc1ccc([N+](=O)[O-])cc1)N1CCC(C(O)(c2ccc3c(c2)OCO3)c2ccc3c(c2)OCO3)CC1 [JZL184] (first compound 0.0004 µM, partner dose 1 µM) | 58.7% | 296% | 114% | 290% | – | 94.9% | 100% | 174% | 228% |
| Cn1c(=O)n(-c2ccc(C(C)(C)C#N)cc2)c2c3cc(-c4cnc5ccccc5c4)ccc3ncc21 + N.N.[Cl][Pt][Cl] [cisplatin] (first compound 0.004 µM, partner dose 1.6 µM) | 57% | 62.4% | 296% | 171% | 35.2% | 84.1% | 90.3% | 113% | – |
| C[C@]12O[C@H](C[C@]1(O)CO)n1c3ccccc3c3c4c(c5c6ccccc6n2c5c31)CNC4=O [Lestaurtinib] + Cn1c(Nc2ccc(C(F)(F)F)cc2)nc2cc(Oc3ccnc(-c4ncc(C(F)(F)F)[nH]4)c3)ccc21 [CHIR265] (first compound 0.004 µM, partner dose 0.08 µM) | 147% | 249% | 288% | 87.6% | 77.3% | 103% | 82.4% | 142% | – |
| N.N.[Cl][Pt][Cl] [cisplatin] + O=C(O)c1ccc(-c2c[nH]c3ncc(-c4ccccc4)cc23)cc1C1CCCC1 [GSK650394] (first compound 1.6 µM, partner dose 0.16 µM) | 141% | 54.4% | 93.5% | 141% | 440% | 104% | 200% | 137% | 109% |
| C[As](C)SC[C@H](NC(=O)CC[C@H](N)C(=O)O)C(=O)NCC(=O)O [Darinaparsin] + Cn1cc(/C=C2\C(=O)Nc3cccnc32)c2ccccc21 [GW441756] (first compound 0.4 µM, partner dose 0.4 µM) | 111% | 91.2% | 191% | 24.6% | – | 91.7% | 29.9% | 95.4% | 370% |
| Cn1cc(C2=C(c3cn(C4CCN(Cc5ccccn5)CC4)c4ccccc34)C(=O)NC2=O)c2ccccc21 [Enzastaurin] + CC(C)(C)c1cnc(CSc2cnc(NC(=O)C3CCNCC3)s2)o1 [SNS-032] (first compound 0.8 µM, partner dose 0.01 µM) | 42.5% | 109% | 36.2% | 126% | 272% | 96.3% | 149% | 108% | 89.1% |
| Cn1cc(C2=C(c3cn(C4CCN(Cc5ccccn5)CC4)c4ccccc34)C(=O)NC2=O)c2ccccc21 [Enzastaurin] + N.N.[Cl][Pt][Cl] [cisplatin] (first compound 0.8 µM, partner dose 1.6 µM) | 92.3% | 60.4% | 57% | 137% | 64.5% | 81.9% | 89.6% | 110% | – |
| O=C(CCCCCCC(=O)Nc1ccccc1)NO [vorinostat] + O=C(Oc1ccc([N+](=O)[O-])cc1)N1CCC(C(O)(c2ccc3c(c2)OCO3)c2ccc3c(c2)OCO3)CC1 [JZL184] (first compound 0.08 µM, partner dose 1 µM) | 159% | 108% | 84.6% | 174% | – | 81.1% | 112% | 89.1% | 48.1% |
| COc1ccc(COc2ccc(Cc3cnc(N)nc3N)cc2OC)cc1 + O=C(Oc1ccc([N+](=O)[O-])cc1)N1CCC(C(O)(c2ccc3c(c2)OCO3)c2ccc3c(c2)OCO3)CC1 [JZL184] (first compound 1 µM, partner dose 1 µM) | 145% | 81.1% | 328% | 129% | – | 90.1% | 74.6% | 75.8% | 832% |
| C[C@]12O[C@H](C[C@]1(O)CO)n1c3ccccc3c3c4c(c5c6ccccc6n2c5c31)CNC4=O [Lestaurtinib] + C[C@@H](Oc1cc(-c2cnn(C3CCNCC3)c2)cnc1N)c1c(Cl)ccc(F)c1Cl [Crizotinib] (first compound 0.004 µM, partner dose 0.2 µM) | 141% | 254% | 58.6% | 153% | 105% | 100% | 66.9% | 104% | – |
| Clc1ccc(Nc2nnc(Cc3ccncc3)c3ccccc23)cc1 [vatalanib] + Cc1cc(SCc2sc(-c3ccc(C(F)(F)F)c(F)c3)nc2C)ccc1OCC(=O)O [GW0742] (first compound 2 µM, partner dose 2 µM) | 109% | 90.9% | – | 169% | 39.8% | 99.2% | 275% | 108% | – |
| Cn1cc(C2=C(c3cn(C4CCN(Cc5ccccn5)CC4)c4ccccc34)C(=O)NC2=O)c2ccccc21 [Enzastaurin] + CC(=O)O[C@@]12CO[C@@H]1C[C@H](O)[C@@]1(C)C(=O)[C@H](O)C3=C(C)[C@@H](OC(=O)[C@H](O)[C@@H](NC(=O)OC(C)(C)C)c4ccccc4)C[C@@](O)([C@@H](OC(=O)c4ccccc4)[C@H]21)C3(C)C [Docetaxel] (first compound 0.8 µM, partner dose 0.0001 µM) | 292% | 1410% | 7060% | 71.9% | 544% | 139% | 379% | 198% | – |
| C[As](C)SC[C@H](NC(=O)CC[C@H](N)C(=O)O)C(=O)NCC(=O)O [Darinaparsin] + C/C(O)=C(\C#N)C(=O)Nc1cc(Br)ccc1Br [LFM-A13] (first compound 0.4 µM, partner dose 2 µM) | 73.8% | 65.1% | 72.8% | 115% | – | 114% | 86.2% | 82.8% | 569% |

An excerpt from above with just cleaved PARP positive nuclei fraction (A2058) and cleaved PARP positive nuclei fraction (CBRC008):
SMILES,cleaved PARP positive nuclei fraction (A2058),cleaved PARP positive nuclei fraction (CBRC008)
"C[C@]12O[C@H](C[C@]1(O)CO)n1c3ccccc3c3c4c(c5c6ccccc6n2c5c31)CNC4=O [Lestaurtinib] + Cc1nc(Nc2ncc(C(=O)Nc3c(C)cccc3Cl)s2)cc(N2CCN(CCO)CC2)n1 [dasatanib] (first compound 0.004 µM, partner dose 0.004 µM)",21.8%,128%
"O=C(O)c1ccc2c(c1)nc(Nc1cccc(Cl)c1)c1ccncc12 + C/C(O)=C(\C#N)C(=O)Nc1cc(Br)ccc1Br [LFM-A13] (first compound 0.4 µM, partner dose 2 µM)",158%,230%

From the supplement of paper PMC4604168 (melanoma cell lines)
